Source: paper PMC11402785, “Structural basis for activity switching in polymerases determining the fate of let-7 pre-miRNAs” (Nature Structural & Molecular Biology, 2024)
These are yes or no findings as the source states them, for the method shown. Some binding calls cover weakened binding; strength is not graded here.

Experiments:
[1] = biological target: T1, human terminal uridylyltransferase 4 (TUT4), truncated (residues 254-1315) (human) (UniProt Q5TAX3); experiment: SEC; TUT4/pre-let-7g/LIN28A assembled with the components added in different orders (pre-let-7 + LIN28A first, or TUT4 + pre-let-7 first), 4 h on ice each step, then SEC; checked by 2D class averages; both purified
T1 sequence: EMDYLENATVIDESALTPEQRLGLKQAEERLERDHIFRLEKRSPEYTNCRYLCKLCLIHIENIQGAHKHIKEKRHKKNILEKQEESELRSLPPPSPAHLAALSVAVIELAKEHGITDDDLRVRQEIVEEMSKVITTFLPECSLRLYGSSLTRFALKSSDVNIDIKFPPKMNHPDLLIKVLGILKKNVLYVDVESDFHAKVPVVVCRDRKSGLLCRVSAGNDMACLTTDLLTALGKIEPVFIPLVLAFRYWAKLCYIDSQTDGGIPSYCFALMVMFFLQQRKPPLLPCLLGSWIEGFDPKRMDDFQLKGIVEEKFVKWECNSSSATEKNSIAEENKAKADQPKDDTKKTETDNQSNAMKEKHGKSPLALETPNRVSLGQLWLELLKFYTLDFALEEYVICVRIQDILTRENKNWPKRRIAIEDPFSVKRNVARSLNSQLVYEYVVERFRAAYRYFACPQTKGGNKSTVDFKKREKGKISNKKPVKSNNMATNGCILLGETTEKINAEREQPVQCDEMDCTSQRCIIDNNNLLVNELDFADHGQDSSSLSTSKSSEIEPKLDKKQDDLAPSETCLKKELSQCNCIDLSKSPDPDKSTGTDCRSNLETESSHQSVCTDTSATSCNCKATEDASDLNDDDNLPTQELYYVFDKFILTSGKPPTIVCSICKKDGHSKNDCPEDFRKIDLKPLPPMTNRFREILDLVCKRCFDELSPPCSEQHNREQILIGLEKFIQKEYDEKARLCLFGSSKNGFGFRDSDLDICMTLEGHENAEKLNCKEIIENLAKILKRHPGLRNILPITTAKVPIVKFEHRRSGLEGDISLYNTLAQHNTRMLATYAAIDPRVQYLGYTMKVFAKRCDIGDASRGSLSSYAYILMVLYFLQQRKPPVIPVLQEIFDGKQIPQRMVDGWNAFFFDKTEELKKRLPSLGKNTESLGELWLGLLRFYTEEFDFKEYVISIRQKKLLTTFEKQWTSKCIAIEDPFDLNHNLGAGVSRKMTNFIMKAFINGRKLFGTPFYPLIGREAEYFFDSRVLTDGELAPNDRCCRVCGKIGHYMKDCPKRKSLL

[2] = biological target: T1, human terminal uridylyltransferase 4 (TUT4), truncated (residues 254-1315) (human); experiment: native gel or EMSA; 3' CY labelled pre-let-7g with TUT4 (wild type or mutants) and LIN28A; 20 mM HEPES pH 7.8, 100 mM NaCl, 2 mM CaCl2, 50 uM ZnCl2, 5% glycerol, 5 mM DTT, 0.5 mM UTP, on ice 30 min; 3-12% native gel; the labelled RNA is imaged; both purified
[3] = biological target: T1, human terminal uridylyltransferase 4 (TUT4), truncated (residues 254-1315) (human); experiment: cryo-EM structure; ternary complexes of TUT7 or TUT4 with pre-let-7g RNA and LIN28A mixed at a molar ratio of 1:1.5:2, overnight on ice with 0.5 mM UTPalphaS, 2 mM DTT, 2 mM CaCl2, then SEC in 20 mM HEPES pH 7.8, 100 mM NaCl; both purified

binding [1]: binds
binding [2]: binds
binding [3]: binds
B1: human LIN28A (natural protein)
chain: MGSVSNQQFAGGCAKAAEEAPEEAPEDAARAADEPQLLHGAGICKWFNVRMGFGFLSMTARAGVALDPPVDVFVHQSKLHMEGFRSLKEGEAVEFTFKKSAKGLESIRVTGPGGVFCIGSERRPKGKSMQKRRSKGDRCYNCGGLDHHAKECKLPPQPKKCHFCQSISHMVASCPLKAQQGPSAQGKPTYFREEEEEIHSPTLLPEAQN
notes: LIN28A, human, synthesised gene; Expressed as an N-terminal His6-GST fusion; removal of the tag is not described; The phrase 'full-length wild-type human TUT7 and human LIN28A' may or may not mean that LIN28A was full length; Only the ZK domain is resolved in the maps
